Drawing on PMC10290656, this text covers binding for four substances.

The target in one assay is T1, HA-tagged Nrf2 (UniProt Q60795).
T1 sequence: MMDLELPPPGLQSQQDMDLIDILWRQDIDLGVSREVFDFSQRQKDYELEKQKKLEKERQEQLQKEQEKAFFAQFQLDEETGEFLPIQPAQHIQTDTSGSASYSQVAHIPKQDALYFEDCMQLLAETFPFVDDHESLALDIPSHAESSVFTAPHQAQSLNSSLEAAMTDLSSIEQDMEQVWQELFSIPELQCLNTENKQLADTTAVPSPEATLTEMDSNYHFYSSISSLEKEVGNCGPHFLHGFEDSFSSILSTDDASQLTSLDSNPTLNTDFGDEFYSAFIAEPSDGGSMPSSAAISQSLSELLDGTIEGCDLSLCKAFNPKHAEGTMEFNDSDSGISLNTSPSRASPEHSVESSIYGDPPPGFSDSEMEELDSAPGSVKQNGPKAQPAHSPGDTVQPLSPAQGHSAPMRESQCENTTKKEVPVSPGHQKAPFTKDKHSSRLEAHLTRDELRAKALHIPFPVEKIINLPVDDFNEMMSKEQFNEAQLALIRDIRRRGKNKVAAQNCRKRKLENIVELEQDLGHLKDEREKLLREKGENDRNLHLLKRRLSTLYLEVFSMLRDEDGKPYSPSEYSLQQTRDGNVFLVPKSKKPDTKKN
In words: co-IP; HEK293 cells transfected with FLAG-Trib1 (truncation mutants of Trib1) and HA-tagged Nrf2; immunoprecipitation with anti-HA.

In the next assay the target is T2, FLAG-tagged Trib1 (UniProt Q8K4K4).
T2 sequence: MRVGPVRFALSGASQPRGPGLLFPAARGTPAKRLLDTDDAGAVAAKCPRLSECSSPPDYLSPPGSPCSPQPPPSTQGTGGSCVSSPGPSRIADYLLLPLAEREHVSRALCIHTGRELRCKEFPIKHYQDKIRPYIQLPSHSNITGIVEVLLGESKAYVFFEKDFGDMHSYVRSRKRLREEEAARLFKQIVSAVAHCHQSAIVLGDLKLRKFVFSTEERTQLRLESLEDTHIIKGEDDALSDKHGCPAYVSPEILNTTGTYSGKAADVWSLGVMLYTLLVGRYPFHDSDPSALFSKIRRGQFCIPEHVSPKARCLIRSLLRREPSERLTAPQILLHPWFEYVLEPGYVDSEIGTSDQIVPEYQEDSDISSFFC
In words: co-IP; HEK293 cells transfected with FLAG-Trib1 and HA-tagged Nrf2 (truncation mutants of Nrf2); immunoprecipitation with anti-FLAG.

These are yes or no findings as the source states them, for the method shown. In cells and extracts the contact can be indirect. Binding calls can cover weak binding; strength is not graded here. Tags and fused reporters may be left off the sequences shown.

For the substance “FLAG-tagged Trib1 C-terminal domain (truncation mutant) (domain or fragment)”, in the assay with HA-tagged Nrf2, the binding entry is given as “binds”.

With “HA-tagged Nrf2 C-terminal domain containing the NLS (truncation mutant) (domain or fragment)”, the binding result with FLAG-tagged Trib1 is “binds”.

Take “HA-tagged Nrf2 N-terminal domain (truncation mutant) (domain or fragment)”: the binding result with FLAG-tagged Trib1 is given as “no binding”.

Turning to “HA-tagged Nrf2 central domain (truncation mutant) (domain or fragment)”, the binding entry in the assay with FLAG-tagged Trib1 was “no binding”.
